Experimental data reported in PubChem BioAssay AID2685 (National Center for Advancing Translational Sciences (NCATS), 2010).
The other results are listed elsewhere or left out. Further columns of the screen follow, without active or inactive calls. The list favours compounds with an active or inconclusive main result. The note in brackets gives the kind of curve behind each potency; many fits are weak.

Assay: qHTS Assay for Lipid Storage Modulators in Drosophila S3 Cells;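 for cell number change: cells counted by Cell Tracker Red CMTPX staining in the red channel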
Details: BODIPY lipid droplet fluorescence, 18-24 h; for cell number change: measured here: cell count max response, cells fed with added oleic acid
Method in brief: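 Laser-scanning cytometry quantifies lipid droplet accumulation (500–530 nm total intensity; droplet/cell object ratio) in oleic acid-fed (400 uM added) Drosophila S3 cells treated with a concentration series. 20 uM Triacsin C defined 100% inhibition.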

[1] = measured here: lipid fluorescence (Fed channel) AC50, cells fed with added oleic acid
[2] = measured here: cell number channel AC50, cells fed with added oleic acid

In the case of `Cc1ccc(NC(=O)CN(C)CC(=O)NC2CCCc3ccccc32)cc1` (configuration not stated), the cell number change is reported as 7.01% and the AC50 [1] is reported as 18.4 µM [rising, single point].
For `CSc1cccc(NC(=S)N2CCC(N(C)C(C)C)CC2)c1`, the AC50 [1] was 0.326 µM [falling, partial curve].
With `COc1ccccc1N1C(=O)c2ccc(C(=O)Nc3ccc(F)cc3)cc2C1=O` the cell number change was 10.8% and the AC50 [1] was 6.51 µM [rising, single point].
For `Cc1ccc(NC(=O)CN(C)C(=O)CCSc2ccc(F)cc2)cc1`, the cell number change was -19.7% and the AC50 [1] was 0.00411 µM [falling, full curve, poor fit].
In the case of `Cc1csc2c(N3CCN(C(=S)Nc4ccc(F)cc4F)CC3)ncnc12`, the cell number change is reported as -3.12% and the AC50 [2] is reported as 0.184 µM [rising, full curve].
With `COc1ccccc1NC(=O)Nc1cc(NC(=O)Nc2ccccc2OC)c(C)nc1C` the cell number change was -52.5%, the AC50 [2] was 32.6 µM [falling, single point] and the AC50 [1] was 14.6 µM [falling, partial curve, poor fit].
For `O=C(NNS(=O)(=O)c1ccc(CCCl)cc1)C(O)(c1ccccc1)c1ccccc1`, the cell number change was 21.1% and the AC50 [1] was 0.0231 µM [rising, full curve, poor fit].
In the case of `CS(=O)(=O)N1CCC(C(=O)Nc2ccc3c(c2)OCCO3)CC1`, the cell number change is reported as 8.44% and the AC50 [1] is reported as 29.1 µM [falling, single point].
In the case of `CC(C)(C)NC(=O)C1CCC(CNS(=O)(=O)c2cccc3nsnc23)CC1` (configuration not stated), the AC50 [1] is reported as 6.51 µM [falling, single point].
Work on `Nc1nnc(SCc2ccccc2F)n1-c1ccccc1` yielded a cell number change of 15.8%.
For `COc1ccc(OC)c(NC(=O)c2oc3ccccc3c2NC(=O)C2CC2)c1`, the cell number change was 5.82% and the AC50 [1] was 0.259 µM [rising, full curve, poor fit].
For `O=C(O)CC12CSc3[nH]c(=O)sc3C1c1ccccc1OC2=O` (configuration not stated), the cell number change was -8.37%, the AC50 [2] was 0.0291 µM [falling, full curve, poor fit] and the AC50 [1] was 3.66 µM [falling, single point].
In the case of `Cc1csc2c(N3CCN(C(=O)c4ccc(C(C)(C)C)cc4)CC3)ncnc12`, the cell number change is reported as -65.7%, the AC50 [2] is reported as 18.4 µM [falling, partial curve] and the AC50 [1] is reported as 20.6 µM [falling, partial curve].
With `Cc1ccc(-c2csc3ncnc(SCC(=O)NCC4CCCO4)c23)cc1` (configuration not stated) the cell number change was -9.09% and the AC50 [1] was 0.651 µM [falling, single point].
With `CC1CCN(S(=O)(=O)c2ccc3c(c2)N(CC(=O)NCCCN2CCCCC2)C(=O)CS3)CC1` the AC50 [2] was 0.058 µM [rising, full curve].
`CNc1oc(-c2cccs2)nc1S(=O)(=O)c1ccccc1` gave a cell number change of 118%.
With `COc1ccc(/C=C/C(=O)NC(=S)Nc2ccc(S(=O)(=O)N=C(N)N)cc2)cc1OC` the cell number change was 17.6%, the AC50 [2] was 5.17 µM [rising, partial curve, poor fit] and the AC50 [1] was 6.51 µM [rising, single point].
For `O=C(/C=C/c1ccc(Cl)c([N+](=O)[O-])c1)c1ccc(O)cc1`, the cell number change was -41.8%, the AC50 [2] was 29.1 µM [falling, single point] and the AC50 [1] was 29.1 µM [falling, single point].
With `c1ccc(OCCn2cnc3ccccc32)cc1` the cell number change was 63.1%, the AC50 [2] was 18.4 µM [rising, single point] and the AC50 [1] was 16.4 µM [rising, single point].
With `O=C(CSc1nc2[nH]c(=O)cc(O)c2s1)Nc1ccc(Br)cc1` the cell number change was -24.8% and the AC50 [1] was 0.731 µM [rising, single point].
For `CCOc1ccc(CCNC(=O)CCCn2nc(C)c3c(C)n(-c4ccccc4)nc3c2=O)cc1`, the cell number change was -7.79%, the AC50 [2] was 1.84 µM [rising, partial curve] and the AC50 [1] was 3.26 µM [rising, partial curve].
For `O=C(CSc1nnc(CNC(=O)c2cccc(C(F)(F)F)c2)o1)NCc1ccco1`, the cell number change was -20.8%.
In the case of `C[C@@H]1C(=O)O[C@H]2[C@H]1CC[C@@]1(C)C(=O)C=C[C@@](C)(O)[C@H]21`, the cell number change is reported as -15.6% and the AC50 [2] is reported as 2.59 µM [falling, partial curve, poor fit].
For `CNC(=S)N(CCc1c(C)[nH]c2ccc(C)cc12)Cc1ccc(OC)c(OC)c1`, the cell number change was 11.7% and the AC50 [1] was 0.411 µM [rising, full curve].
Work on `COc1ccccc1CCC(=O)Oc1ccccc1C#N` yielded a cell number change of 2.7%.
In the case of `COc1ccc(CN(C)CC(=O)Nc2ccccc2C(F)(F)F)c(OC)c1`, the cell number change is reported as -24.3%, the AC50 [2] is reported as 0.82 µM [rising, full curve] and the AC50 [1] is reported as 18.4 µM [rising, partial curve].
In the case of `O=C1c2ccccc2C(=O)N1CCn1nc(Cl)nc1Cl`, the cell number change is reported as 24% and the AC50 [1] is reported as 1.03 µM [rising, full curve].
In the case of `Nc1ccc(-c2n[nH]c(=O)c3ccccc23)cc1N`, the cell number change is reported as 0.219% and the AC50 [1] is reported as 8.2 µM [rising, partial curve].
For `Cc1nn(-c2cccc(Cl)c2)c(Cl)c1/C=N/NC(=O)c1cccnc1`, the cell number change was -34.1% and the AC50 [2] was 32.6 µM [falling, single point].
In the case of `Cc1onc(-c2c(Cl)cccc2Cl)c1C(N)=S`, the cell number change is reported as -21.1% and the AC50 [1] is reported as 6.51 µM [rising, single point].
In the case of `Cc1cc(C)c(C)c(S(=O)(=O)N2CCN(C(=O)c3ccccn3)CC2)c1C`, the cell number change is reported as 23.4% and the AC50 [1] is reported as 25.9 µM [rising, single point].
For `NCC(c1ccccc1)c1c[nH]c2ccccc12` (configuration not stated), the cell number change was -33.1% and the AC50 [1] was 10 µM [rising, partial curve, poor fit].
In the case of `CCOc1ccc2nc(N(CCN(C)C)C(=O)c3cc4ccccc4cc3OC)sc2c1`, the cell number change is reported as 73.3%, the AC50 [2] is reported as 11.6 µM [rising, partial curve, poor fit] and the AC50 [1] is reported as 1.46 µM [rising, partial curve].
With `COc1cc(CNC2CCCC2)c(Br)cc1OCc1ccccc1` the cell number change was 119% and the AC50 [2] was 8.2 µM [rising, partial curve].
With `CCOC(=O)[C@H]1[C@H]2COc3ccc(Cl)cc3[C@@H]2N2C(=O)c3ccc(Cl)cc3NC(=O)[C@@]12C` the cell number change was 0.984% and the AC50 [1] was 32.6 µM [falling, single point].
In the case of `Nc1ncnc(Sc2ccc(Cl)cc2)c1[N+](=O)[O-]`, the AC50 [2] is reported as 0.58 µM [falling, partial curve] and the AC50 [1] is reported as 2.06 µM [falling, partial curve].
With `CC(=O)N1N=C(N)SC12CCCC2` the cell number change was -23.1% and the AC50 [1] was 0.92 µM [falling, full curve, poor fit].
With `O=C(NCCC(=O)N1CCN(S(=O)(=O)c2ccc(Cl)cc2)CC1)Nc1ccccc1` the cell number change was 78.5% and the AC50 [2] was 20.6 µM [rising, single point].
With `Cc1onc(-c2ccccc2Cl)c1C(=O)OCc1cnc(Cl)s1` the cell number change was 21.4% and the AC50 [2] was 0.411 µM [rising, single point].
With `CCn1c(CCNS(=O)(=O)c2ccccc2Br)nnc1SC` the cell number change was -6.25% and the AC50 [1] was 0.116 µM [rising, single point].
In the case of `Cc1cccc(NC(=O)C2CCN(S(=O)(=O)c3ccc4c(c3)OCCCO4)CC2)n1`, the cell number change is reported as 58.6% and the AC50 [2] is reported as 14.6 µM [rising, partial curve, poor fit].
With `CC(C)c1ccc(OCc2ccc(C(=O)N3CCN(c4ccccn4)CC3)cc2)cc1` the cell number change was 4.32%.
For `O=C(CN1C(=O)CCSc2ccccc21)Nc1ccc2c(c1)OCCO2`, the cell number change was 12% and the AC50 [1] was 0.82 µM [rising, full curve, poor fit].
With `CCCCNC(=O)[C@H](Cc1c[nH]c2ccccc12)NC(=O)c1ccccc1Cl` the cell number change was 7.29%.
In the case of `Cc1cc(OCC(=O)N2CCN(c3ccccc3)CC2)c2c(C)c(C)c(=O)oc2c1`, the cell number change is reported as 8.73%.
For `O=C1c2cccc3cccc(c23)C(=O)N1Cc1ccccc1`, the cell number change was -5.21% and the AC50 [1] was 14.6 µM [falling, partial curve].
In the case of `CCOCCSc1n[nH]c(=O)n1CCc1ccccc1`, the cell number change is reported as -3.97% and the AC50 [1] is reported as 0.651 µM [rising, single point].
In the case of `COCCn1c(C(C)C)nc2ccccc21`, the cell number change is reported as -16.1% and the AC50 [1] is reported as 0.82 µM [falling, full curve, poor fit].
Molecule `O=C1CCCC2=C1C1O[C@](c3ccsc3)(Cc3c1ccc1ccccc31)O2` has a cell number change of 11.3%.
For `COc1ccc2cc(CN(CCCN3CCOCC3)Cc3nnnn3C3CCCC3)c(=O)[nH]c2c1`, the cell number change was -36.2%, the AC50 [2] was 32.6 µM [falling, single point] and the AC50 [1] was 4.11 µM [falling, full curve, poor fit].
In the case of `COc1cccc(S(=O)(=O)NCc2ccc(C(=O)Nc3ccc(Cl)c(Cl)c3)cc2)c1`, the cell number change is reported as 44.9% and the AC50 [2] is reported as 32.6 µM [rising, single point].
With `CCCC(CCC(=O)NC1CCCCC1)C(=O)O` (configuration not stated) the cell number change was -10.7% and the AC50 [1] was 0.651 µM [falling, single point].
With `Cc1cc(C)c(NC(=O)CNC(=O)Cc2sc(C)nc2-c2ccc(F)cc2)c(C)c1` the AC50 [2] was 0.13 µM [rising, partial curve] and the AC50 [1] was 0.116 µM [rising, full curve].
In the case of `CCCc1oc(C(=O)O)cc1CN`, the cell number change is reported as -38%, the AC50 [2] is reported as 3.26 µM [falling, full curve] and the AC50 [1] is reported as 4.11 µM [rising, single point].
In the case of `Cc1nn(C)cc1/C=N\NC(=O)Cc1ccc([N+](=O)[O-])cc1`, the cell number change is reported as 11.7% and the AC50 [1] is reported as 0.731 µM [falling, full curve].
Work on `OCCC#Cc1ccc(CN2CCN(Cc3ccsc3)C(CCO)C2)cc1` (configuration not stated) yielded a cell number change of -15.6%.
In the case of `CCOc1ccc(C2/C(=C(/O)c3ccc(OC)cc3)C(=O)C(=O)N2c2cc(C)on2)cc1OC` (configuration not stated), the cell number change is reported as 11.1% and the AC50 [1] is reported as 0.411 µM [falling, partial curve, poor fit].
In the case of `CCCC(=O)N(c1ccc2oc(=O)sc2c1)S(=O)(=O)c1cccs1`, the cell number change is reported as -5.91% and the AC50 [1] is reported as 29.1 µM [falling, single point].
In the case of `Cc1ccc(CNC(=O)C2CC3Cn4c(nc5cc6ccccc6cc54)C3N2C)o1` (configuration not stated), the cell number change is reported as 25.3% and the AC50 [1] is reported as 13 µM [rising, partial curve].
